Patent US20240277712A1, “TREATMENT AND PREVENTION OF DEVELOPMENTAL DISORDERS AND MENTAL DISEASES” (KYUSHU UNIVERSITY, NATIONAL UNIVERSITY CORPORATION, priority 2020, published 2024)
At least one compound was matched to its structure with a doubt left.

Experiments:
[1] = tested on: prefrontal cortical neurons of MeCP2-KO mice; test: Neuronal cell body area and spine density by Golgi staining in MeCP2-KO mice; format: in vivo; conditions: 8-week-old MeCP2-KO mice
MeCP2-KO mice [2] = test: Neurological symptom scoring in MeCP2-KO mice; format: in vivo; conditions: 2 mg/ml in drinking water starting at week 4, observed up to 10 weeks, vs vehicle
Experimental: Treatment with reverse transcription inhibitors was performed as follows.
(§1) MeCP2-KO mice (C57BL/6 background) were obtained from Mutant Mouse Resource & Research Centers (MMRRC) (Chen, RZ, Akbarian S, Tudor M and Jaenisch R. Nat Genet 27, 327-331 (2001)). All aspects of animal care and treatment were carried out according to the guidelines of the Experimental Animal Care Committee of Kyushu University.
Mice were maintained in a 12-hour light/dark cycle with free access to food and water. MeCP2-KO mice were divided into three groups of animals, each of which was administered with 3TC (QA-4615, Combi-blocks), d4T (d3580, Tokyo Chemical Industry Co., Ltd.) and vehicle. […]
Neurological symptoms of the mice were scored as described in Guy J, Gan J, Selfridge J, Cobb S and Bird A. Science 315, 1143-1147 (2007). In brief, the mice bred as described above were scored blind to genotype and treatment status, focusing on the six symptoms of mobility, gait, hindlimb clasping, tremor, breathing, and general condition. Each of the six symptoms was scored from 0 to 2:0 corresponds to symptom's being absent or the same as in the wild-type, 1 corresponds to symptom's being present, and 2 corresponds to severe symptom.
Six neurological symptoms scored in each of the three groups of the mice (vehicle, 15 mice; 3TC, 10 mice; d4T, 10 mice) were summed, and observed and recorded for up to 10 weeks.

MIA model mice = test: Three-chamber test of social skills in MIA model mice; format: in vivo; conditions: 3TC 2 mg/ml in drinking water from 4 weeks old
MeCP2-KO mice [3] = test: Survival of MeCP2-KO mice; format: in vivo; conditions: 2 mg/ml in drinking water starting at week 4, vs vehicle
Experimental: as §1
Mice were maintained in a 12-hour light/dark cycle with free access to food and water. MeCP2-KO mice were divided into three groups of animals, each of which was administered with 3TC (QA-4615, Combi-blocks), d4T (d3580, Tokyo Chemical Industry Co., Ltd.) and vehicle. The mice were orally administered with 3TC (2 mg/ml), d4T (2 mg/ml) and vehicle in drinking water, respectively, starting at week 4. As a control, the vehicle-treated MeCP2-KO mice were used. All mice were observed daily.
Next, the survival rate of the mice in each group (vehicle, 20 mice; 3TC, 13 mice; d4T, 13 mice) was examined.

L1 = test: L1-EGFP vector assay in HEK293; format: cell-based, human; conditions: HEK293 with L1-EGFP vector, 20 μM, four days
Experimental: The reverse transcriptase inhibitors 3TC, d4T and Tenofovir disoproxil Fumarate (TDF), QA-2704, Combi-Blocks) were added to cell lines derived from human fetal kidney cells (HEK293) to a final concentration of 20 μM, and the cells were introduced with a vector (L1-EGFP, Macia et al. Genome Res 27, 335-348 (2017)) in which EGFP protein was expressed in only cells with activated L1. Four days after incubating, immunostaining was performed using antibodies against GFP and Hoechest, which stains nuclei, and images were taken using a fluorescence microscope (Leica AF600) with a 10× objective.

## Nc1ccn([C@@H]2CS[C@H](CO)O2)c(=O)n1 [3TC, lamivudine]
[1]
  cell body area of prefrontal cortical neurons: improved that phenotype
  spine density of prefrontal cortical neurons: improved that phenotype
MeCP2-KO mice [2]
  Rett symptoms (summed score of six neurological symptoms): Significant reductions
MIA model mice
  social skills (approach time to social target cage vs empty cage): improved social skills
MeCP2-KO mice [3]
  survival rate: Significant life extensions
L1
  percentage of EGFP-positive cells: decrease
